Measurements taken from the supplement of paper PMC3334620.
Over roughly 33,000 sequences, “E-score (-0.5 to 0.5)” has its median near -0.0034; the highest 2% begin near 0.25. Some of the results follow.

The sequences below were run against T1, Yap3 (UniProt P38749) (assay: PBM E-score (8-mer binding enrichment) (E-score (-0.5 to 0.5)); higher = stronger / more preferred TF binding). Details: protein concentration: 100 nM; construct: GST-full length.
T1 sequence: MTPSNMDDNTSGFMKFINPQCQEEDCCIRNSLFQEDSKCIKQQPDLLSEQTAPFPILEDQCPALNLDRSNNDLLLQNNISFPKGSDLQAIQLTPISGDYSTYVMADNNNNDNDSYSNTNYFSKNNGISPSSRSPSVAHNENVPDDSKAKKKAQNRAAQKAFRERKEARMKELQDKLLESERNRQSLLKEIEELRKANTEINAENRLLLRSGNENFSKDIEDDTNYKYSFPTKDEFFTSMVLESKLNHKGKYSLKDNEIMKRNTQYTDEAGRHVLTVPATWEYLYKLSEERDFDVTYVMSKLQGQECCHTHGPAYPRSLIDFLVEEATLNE
Procedure, shortened: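 Masliner-normalised scans of fluorescent anti-GST signal were the basis for scoring. That signal came from GST-tagged yeast transcription factors applied at about 100-200 nM to double-stranded universal all-10-mer Agilent arrays on fresh or once-stripped slides. Each ungapped eight-base word, pooled with its reverse complement, received an E-score from the Universal PBM Analysis Suite.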

| Sequence | PBM E-score |
| --- | --- |
| GATGATAC | 0.00906 |
| CGCGTTAA | 0.0876 |
| CGGCGACG | -0.0597 |
| CCTATCCG | -0.0541 |
| AATCGTGA | -0.112 |
| CAGGCAGG | -0.0524 |
| GCCCGCGC | -0.178 |
| AATCGTCA | 0.144 |
| CACCCCTG | -0.299 |
| ACCGTAGG | -0.34 |
| AGAGAATC | -0.0708 |
| CGAACACA | 0.174 |
| CCGATCGC | -0.0488 |
| TCATCGAA | -0.0175 |
| AGTATGAT | 0.221 |
| GGGAGATA | 0.026 |
| GGATTGCA | 0.116 |
| AAAGGTGA | 0.0224 |
| CGCGGTTA | -0.0159 |
| ACGTTTTG | 0.0279 |
| GTCTAAAA | 0.00304 |
| CCGGTGAG | -0.114 |
| GGCGAGCA | -0.0472 |
| CACGCCAA | -0.0782 |
| ACGTCAGT | -0.0573 |

| Sequence | PBM E-score |
| --- | --- |
| GACGTATA | -0.098 |
| TTACCAAA | 0.22 |
| AGTGGTTC | -0.0567 |
| GATGAGGC | -0.131 |
| ATAAAAGC | 0.0507 |
| AGTGTCGG | 0.0449 |
| CCTGTACG | -0.111 |
| CAATCGGA | 0.207 |
| CACGTCGG | -0.166 |
| AGTATACT | -0.0564 |
| CACCGGGA | -0.246 |
| ATTAGAAA | 0.104 |
| GCAAAGGC | -0.239 |
| CACATAAG | 0.053 |
| AACTGATT | -0.0243 |
| GGAAGACC | -0.336 |
| ACGCCGAT | -0.0663 |
| GAGCGTAA | 0.198 |
| AGCCAACT | -0.203 |
| CCATATAA | 0.131 |
| AGCGTGCG | 0.0339 |
| AACAGCTA | -0.0101 |
| GAAGAGAC | -0.0037 |
| CACAACCC | -0.00206 |
| CATTTAGC | -0.0541 |

Part of the list above in another layout.
ATAAAAGC
  PBM E-score = 0.0507
AGTGTCGG
  PBM E-score = 0.0449
CCTGTACG
  PBM E-score = -0.111
CAATCGGA
  PBM E-score = 0.207

An excerpt of these results, tab-delimited:
Sequence	PBM E-score
CCTGTACG	-0.111
CAATCGGA	0.207

Later entries:

| Sequence | PBM E-score |
| --- | --- |
| GTAGAAGA | 0.118 |
| AATACGAA | 0.138 |
| CCGCCCTA | -0.199 |
| AGCGCAAG | -0.0984 |
| AGTGGGTC | -0.219 |
| CTCCGTCA | -0.169 |
| CTAAGTAA | 0.114 |
| ACGTAACG | 0.208 |
| AGGCACCT | -0.208 |
| AATCTGCT | -0.00975 |
| AGGTTGCC | -0.0836 |
| CTCAATCA | 0.092 |
| CCTGGCCC | -0.254 |
| AAAGTTGG | 0.0701 |
| AGCGTAAC | 0.0789 |
| GACGAGTC | -0.183 |
| CCGTTACG | 0.0295 |
| ACGCTCTA | -0.162 |
| CTTTCCCA | -0.00553 |
| CGCTGCGA | 0.0607 |
| GGTGCCAC | -0.24 |
| TAATGATA | 0.239 |
| AAAATGAT | 0.265 |
| AGCTACCA | -0.0542 |
| AATCAGGT | 0.0919 |

Quoted from above for reference:

| Sequence | PBM E-score |
| --- | --- |
| AGTATACT | -0.0564 |
| CACCGGGA | -0.246 |
| ATTAGAAA | 0.104 |
| GCAAAGGC | -0.239 |

Remaining list, next part:

| Sequence | PBM E-score |
| --- | --- |
| TCAACTCA | 0.05 |
| GAGCCAAA | 0.0785 |
| AAGTTCAA | 0.149 |
| AATCTCCC | -0.126 |
| CTATAAAG | 0.074 |
| GATTTGCC | 0.076 |
| AAAGCAAA | 0.205 |
| CACCCATC | 0.0126 |
| GACCGTGA | -0.0857 |
| CTGTGGCC | -0.361 |
| AGCTGTTC | -0.0682 |
| CAATTAAG | 0.0652 |
| AAACAGGT | 0.0263 |
| GCCAGGAC | -0.145 |
| AAGAAGGG | -0.0033 |
| GGAAGAAA | 0.103 |
| TAGGGACA | 0.00256 |
| GCCGCACA | -0.0211 |
| ATATAACC | 0.116 |
| GCAGCCCA | -0.309 |
| AAACCTAG | 0.0499 |
| CCCTTTGA | -0.125 |
| ATGCAAGG | -0.206 |
| AAAATATA | 0.19 |
| AGTTTGGA | 0.0755 |

| Sequence | PBM E-score |
| --- | --- |
| CCAACAAA | 0.0456 |
| ACACAGCT | -0.0406 |
| TAGGTGCA | -0.0111 |
| GAAGATTA | 0.089 |
| AACGAATT | 0.208 |
| TCATCACA | 0.0786 |
| AAACCTAA | 0.0806 |
| ACAGGAAG | 0.0376 |
| GAAGAACA | 0.225 |
| ATTCGGTA | 0.157 |
| GACTCATC | -0.108 |
| CAGGTGCC | -0.173 |
| ACGCACGG | -0.0399 |
| AAAGAAGT | 0.121 |
| ACTGAGCA | -0.131 |
| ATGGGGGA | -0.226 |
| CAACTTGA | 0.199 |
| GTCGATAA | 0.0282 |
| AGATGGAC | 0.0235 |
| AATGCGCT | -0.0354 |
| ACGAATGG | 0.16 |
| CTTTGGGC | 0.00338 |
| CAACGCTA | -0.0508 |
| CGCAACCA | -0.0285 |
| CGAGAGGA | 0.0282 |

| Sequence | PBM E-score |
| --- | --- |
| ATAGCTAG | -0.067 |
| GTCAAGGA | -0.151 |
| CCCAGCAA | -0.138 |
| GCTAACCC | -0.168 |
| GATTTCTA | 0.115 |
| AGTTGACC | 0.0115 |
| CCAGAGAC | -0.0324 |
| CATTGCAG | 0.00712 |
| CGACGGTA | 0.157 |
| CGGGACAA | -0.195 |
| AATTACAT | 0.229 |
| GTTGGTGA | 0.13 |
| ATTTGAGG | -0.078 |
| GGTCACTA | -0.105 |
| CAGATGGC | -0.0154 |
| ACATGAAA | 0.0243 |
| CATATGGC | 0.0183 |
| GGCACCAA | -0.0285 |
| ATTCGGAC | 0.214 |
| GATGTAGA | -0.0207 |
| GGTCTACA | -0.0981 |
| AAAGCTCG | -0.0592 |
| GTAAATGA | 0.169 |
| AACGCAAC | 0.21 |
| ACTAATAT | 0.301 |

| Sequence | PBM E-score |
| --- | --- |
| ATCGGTCG | 0.0365 |
| TCTCGGAA | -0.0419 |
| CATTCGAG | 0.0517 |
| AATTAAGG | 0.0609 |
| CCGTGTGA | -0.0103 |
| CGTGCAGA | -0.0695 |
| AGCCAAAG | -0.0605 |
| AAGAACCA | 0.0613 |
| AATACGCT | 0.121 |
| AATTCAGT | -0.00871 |
| CAGGGAAC | -0.0715 |
| TGCGACCA | 0.115 |
| GGCTCCGA | -0.0527 |
| AAATGTGC | 0.197 |
| CATAATTC | 0.23 |
| ACGAGTCA | -0.168 |
| AAATGTAC | 0.174 |
| GCCCACGC | -0.141 |
| CGTCTTCA | -0.0385 |
| ACGGGTGA | -0.038 |
| AGTGATCC | -0.0505 |
| TAAACTAA | 0.282 |
